PubChem BioAssay AID2465 (Broad Institute, 2010)
In all, about 24,000 compounds went through this assay and fewer than 10 were called active. The inconclusive results got no clear call from the source; some entries with a clear call stand among them for comparison. No stated cut-off is given here; in the data, active means caspase activation above about 5.9%; inconclusive means no clear call, values can overlap the other calls; inactive means below about 2.2%.

assay: A1 inhibitors via caspase activation, primary screen, cell-based, luminescence, HTS, two replicates (AID 2465); conditions: MEF A1-2A-BIM cells, caspase-Glo luminescence, 3 h; stronger effect = higher value; percent of clofoctol response, DMSO zero; concentration not given here
How it was run: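 Material: mouse embryonic fibroblasts co-expressing A1 and BIM (A1-2A-BIM), primed for A1 dependence / Quantity: 2500 cells/well / Buffer or medium: RPMI-1640 growth medium with 10% FBS / Doses: 50 nL compound per well, pinned / Schedule: 3 h compound exposure at 37 °C / Signal: Caspase-Glo luminescence (DEVD substrate) / Measure: Caspase-3/7 activation, seen as rise in luminescence signal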

For `C[C@@H]1CN([C@H](C)CO)C(=O)c2cc(NS(=O)(=O)c3ccc(F)cc3)ccc2O[C@@H]1CN(C)Cc1ccc(Cl)c(Cl)c1`, which caspase activation is on record?
Its caspase activation is inconclusive: 17.3%.

With `C[C@H](CO)N1C[C@H](C)[C@H](CN(C)Cc2ccc(C(F)(F)F)cc2)Oc2ccc(NC(=O)Nc3ccc(C(F)(F)F)cc3)cc2CC1=O` as the molecule, how does the caspase activation read?
Its caspase activation is active: 6.58%.

With `CCCN(C)C[C@@H]1Oc2ncc(Br)cc2C(=O)N([C@H](C)CO)C[C@@H]1C` as the molecule, how does the caspase activation read?
Its caspase activation is inactive: -0.632%.

For `[N-]=[N+]=NCc1ccccc1C[C@@]1(C(=O)NCC(O)CO)N=C(c2ccc(OCCCO)cc2)O[C@@H]1c1ccccc1` (stereo partly drawn), which caspase activation is on record?
The caspase activation was active: 5.87%.

With `C[C@H](CO)N1C[C@H](C)[C@H](CN(C)C(=O)NC2CCCCC2)Oc2ncc(-c3cccc(C(F)(F)F)c3)cc2C1=O` as the molecule, how does the caspase activation read?
Its caspase activation is active: 7.11%.

Which caspase activation does the source give for `C[C@H](CO)N1C[C@H](C)[C@H](CN(C)Cc2ccncc2)Oc2ncc(C#CCC3CCCCC3)cc2C1=O` here?
Its caspase activation is inconclusive: 9.63%.

With `C[C@H](CO)N1C[C@H](C)[C@H](CN(C)C(=O)NC2CCCCC2)Oc2ncc(C#Cc3ccccc3)cc2C1=O` as the molecule, how does the caspase activation read?
The caspase activation was inconclusive: 5.33%.

With `C[C@H](CO)N1C[C@H](C)[C@H](CN(C)S(C)(=O)=O)Oc2ccc(NC(=O)Nc3ccc(F)cc3)cc2CC1=O` as the molecule, how does the caspase activation read?
The caspase activation was inconclusive: 1.81%.

With `C[C@H](CO)N1C[C@H](C)[C@H](CN(C)Cc2ccccc2C(F)(F)F)OCc2cnnn2CCCC1=O` as the molecule, how does the caspase activation read?
Its caspase activation is inactive: -1.27%.

Which caspase activation does the source give for `C[C@@H]1CN([C@H](C)CO)C(=O)c2cc(NC(=O)Cc3ccccc3)ccc2O[C@@H]1CN(C)Cc1ccc(C(=O)Nc2ccccc2N)cc1` here?
Its caspase activation is inconclusive: 3.41%.

For `C[C@H](O)[C@H](O)[C@@H](O)[C@@H](O)/C=N/NC(=O)CCCCCC(=O)Nc1ccccc1O`, which caspase activation is on record?
Its caspase activation is inactive: 0.323%.

For `CCOc1cc(OCC)cc(C(=O)N[C@@H](Cc2ccc(-n3cc(COc4ccccc4/C=C(C)/C=C/C(=O)NO)nn3)cc2)C(=O)OC)c1`, which caspase activation is on record?
Its caspase activation is inconclusive: 3.65%.

With `C[C@H](CO)N1C[C@H](C)[C@@H](CN(C)Cc2ccccc2)OCCCC[C@H](C)Oc2ccc(NC(=O)Nc3ccc(F)cc3)cc2C1=O` as the molecule, how does the caspase activation read?
Its caspase activation is inconclusive: 2.86%.

With `C[C@@H]1CN([C@@H](C)CO)C(=O)c2cc(NS(C)(=O)=O)ccc2O[C@@H](C)CCCCO[C@@H]1CN(C)C(=O)Nc1ccc(C(F)(F)F)cc1` as the molecule, how does the caspase activation read?
The caspase activation was inconclusive: 2.11%.

With `C[C@H](CO)N1C[C@H](C)[C@@H](CN(C)Cc2ccc(C(=O)Nc3ccccc3N)cc2)Oc2ccc(NS(=O)(=O)c3ccccc3)cc2CC1=O` as the molecule, how does the caspase activation read?
The caspase activation was inactive: 0.539%.

With `C[C@H]1CN([C@@H](C)CO)C(=O)c2cc(NC(=O)CCN3CCOCC3)ccc2O[C@@H]1CN(C)C(=O)Nc1ccccc1` as the molecule, how does the caspase activation read?
Its caspase activation is inactive: 0.613%.

With `C[C@@H]1CCCCO[C@@H](CN(C)S(=O)(=O)c2cn(C)cn2)[C@H](C)CN([C@H](C)CO)C(=O)c2cc(NS(=O)(=O)c3cn(C)cn3)ccc2O1` as the molecule, how does the caspase activation read?
Its caspase activation is inconclusive: 3.26%.

Which caspase activation does the source give for `C[C@H]1CCCCO[C@H](CN(C)Cc2ccc3c(c2)OCO3)[C@@H](C)CN([C@@H](C)CO)C(=O)c2cc(NC(=O)Nc3ccc(C(F)(F)F)cc3)ccc2O1` here?
The caspase activation was inconclusive: 5.4%.

For `C[C@@H]1CCCCO[C@@H](CN(C)CC2CCCCC2)[C@H](C)CN([C@H](C)CO)C(=O)c2cc(NC(=O)Nc3ccc(C(F)(F)F)cc3)ccc2O1`, which caspase activation is on record?
The caspase activation was active: 8.3%.

Which caspase activation does the source give for `COc1ccc([Si](C)(C)[C@@H]2[C@@H](CCO)O[C@]3(C(=O)N4c5c(cc(OC)cc53)C(C)=CC4(C)C)[C@H]2C)cc1` here?
Its caspase activation is active: 26.7%.

With `C[C@@H]1CN([C@@H](C)CO)C(=O)Cc2cc(NC(=O)Nc3ccccc3)ccc2O[C@@H]1CN(C)Cc1ccc(C(F)(F)F)cc1` as the molecule, how does the caspase activation read?
Its caspase activation is inactive: 1.06%.

For `COc1ccc([Si](C)(C)[C@@H]2[C@@H](CCO)O[C@]3(C(=O)N(C)c4c(Br)cc(C)cc43)[C@H]2C)cc1`, which caspase activation is on record?
Its caspase activation is active: 43.6%.

For `C[C@H]1CN([C@@H](C)CO)C(=O)c2cc(NC(=O)Nc3ccc(C(F)(F)F)cc3)ccc2O[C@@H]1CN(C)Cc1ccc(C(F)(F)F)cc1`, which caspase activation is on record?
The caspase activation was inconclusive: 4.61%.

With `COc1ccc(CN(C)C[C@H]2Oc3ccc(NC(=O)CCN4CCOCC4)cc3C(=O)N([C@@H](C)CO)C[C@@H]2C)cc1` as the molecule, how does the caspase activation read?
Its caspase activation is inconclusive: 3.82%.

For `C[C@@H]1CCCCO[C@H](CN(C)S(=O)(=O)c2cn(C)cn2)[C@@H](C)CN([C@@H](C)CO)C(=O)c2cc(NS(=O)(=O)c3ccccc3)ccc2O1`, which caspase activation is on record?
Its caspase activation is inconclusive: 3.11%.

For `C[C@@H]1CCCCO[C@H](CN(C)Cc2ccc3c(c2)OCO3)[C@@H](C)CN([C@@H](C)CO)C(=O)c2cc(NS(=O)(=O)c3ccc(F)cc3)ccc2O1`, which caspase activation is on record?
Its caspase activation is inactive: -0.417%.

Which caspase activation does the source give for `COc1c(O)c2c(=O)cc3c4c5c(cc(=O)c6c(O)c(OC)c(CC(C)O)c(c(c1CC(C)O)c24)c65)OCO3` (stereo not drawn) here?
The caspase activation was inconclusive: 3.46%.

Which caspase activation does the source give for `C[C@@H]1CN([C@@H](C)CO)C(=O)c2cc(NC(=O)Nc3ccc4c(c3)OCO4)ccc2O[C@@H](C)CCCCO[C@H]1CN(C)Cc1ccc(C(F)(F)F)cc1` here?
The caspase activation was inactive: -1.03%.

Which caspase activation does the source give for `CNC[C@@H]1Oc2c(NC(=O)Nc3ccc(F)cc3)cccc2C(=O)N([C@H](C)CO)C[C@H]1C` here?
The caspase activation was inconclusive: 2.9%.

Which caspase activation does the source give for `COc1ccc([Si](C)(C)[C@H]2[C@H](CCO)O[C@@]3(C(=O)N4c5c(cc(OC)cc53)C(C)=CC4(C)C)[C@@H]2C)cc1` here?
The caspase activation was inconclusive: 5.35%.

With `C=CCN1C(=O)[C@]2(O[C@H](CCO)[C@@H]([Si](C)(C)c3ccc(OC)cc3)[C@@H]2C)c2cc(I)ccc21` as the molecule, how does the caspase activation read?
Its caspase activation is active: 9.02%.

For `Cc1ccc(S(=O)(=O)N(C)C[C@H]2Oc3ccc(NC(=O)CCCCCC(=O)Nc4ccccc4N)cc3C(=O)N([C@H](C)CO)C[C@@H]2C)cc1`, which caspase activation is on record?
The caspase activation was inconclusive: 2.88%.

For `COc1ccc(S(=O)(=O)Nc2ccc3c(c2)C(=O)N([C@@H](C)CO)C[C@@H](C)[C@@H](CN(C)CC2CC2)O3)cc1`, which caspase activation is on record?
Its caspase activation is inconclusive: 1.91%.

With `C[C@@H]1CN([C@H](C)CO)C(=O)c2cc(NC(=O)c3ccncc3)ccc2O[C@@H](C)CCCCO[C@H]1CN(C)C(=O)Nc1ccc(C(F)(F)F)cc1` as the molecule, how does the caspase activation read?
The caspase activation was inconclusive: 2.94%.

For `Cc1noc(C)c1NC(=O)N(C)C[C@H]1Oc2ccc(NC(=O)CCC(F)(F)F)cc2CC(=O)N([C@@H](C)CO)C[C@H]1C`, which caspase activation is on record?
Its caspase activation is inconclusive: 2.46%.

Which caspase activation does the source give for `C[C@@H]1CN([C@H](C)CO)C(=O)Cc2cc(NC(=O)Nc3ccc4c(c3)OCO4)ccc2O[C@@H]1CN(C)CC1CC1` here?
Its caspase activation is inconclusive: 3.09%.

For `CC(C)[Si](OCCCNS(=O)(=O)c1ccc(Br)cc1)(C(C)C)C(C)C`, which caspase activation is on record?
Its caspase activation is inconclusive: 5.48%.

For `COc1ccc(S(=O)(=O)Nc2ccc3c(c2)C(=O)N([C@@H](C)CO)C[C@H](C)[C@@H](CN(C)C(=O)Nc2ccc(F)cc2)OCCCC[C@@H](C)O3)cc1`, which caspase activation is on record?
Its caspase activation is inconclusive: 2.92%.

Which caspase activation does the source give for `Cc1noc(C)c1NC(=O)Nc1ccc2c(c1)CC(=O)N([C@@H](C)CO)C[C@H](C)[C@H](CN(C)Cc1ccncc1)O2` here?
The caspase activation was inconclusive: 3.85%.

Which caspase activation does the source give for `C[C@@H]1CN([C@H](C)CO)C(=O)c2cc(NC(=O)Cn3cnnn3)ccc2O[C@H]1CN(C)C(=O)Nc1ccccc1` here?
Its caspase activation is inactive: 0.399%.

Which caspase activation does the source give for `C[C@H](CO)N1C[C@H](C)[C@@H](CN(C)C(=O)Nc2ccc(F)cc2)OCCCC[C@H](C)Oc2ccc(NC(=O)Nc3ccc(C(F)(F)F)cc3)cc2C1=O` here?
The caspase activation was inconclusive: 3.36%.

With `COc1ccc([Si](C)(C)[C@@H]2[C@@H](CCn3cc(CCO)nn3)O[C@]3(C(=O)N(c4ccccc4)c4ccccc43)[C@H]2C)cc1` as the molecule, how does the caspase activation read?
Its caspase activation is active: 12.2%.

For `C[C@@H]1CCCCO[C@H](CN(C)Cc2ccncc2)[C@@H](C)CN([C@@H](C)CO)C(=O)c2cc(NS(C)(=O)=O)ccc2O1`, which caspase activation is on record?
Its caspase activation is inconclusive: 2.72%.
